[ ]: non-standard residue; d: D form. d2Nal = N[C@H](Cc1ccc2ccccc2c1)C(=O)O
Key:
[1] = general procedure: Fmoc solid-phase peptide synthesis; 4-((2',4'-dimethoxyphenyl)-(Fmoc-amino)methyl)-phenoxy resin (Rink, Novabiochem) 0.39 mmol/g; 4-methyl BHA resin 0.72 mm; HBTU in NMP (Fmoc); preformed symmetrical anhydrides in DMF (Boc); settings: whole synthesis, scale of the general procedure 0.22 mmol (Fmoc), 0.5 mmol (Boc)
[2] = Fmoc solid-phase peptide synthesis; Rink amide resin; HBTU in NMP (Fmoc); preformed symmetrical anhydrides in DMF (Boc); settings: whole synthesis, scale 0.22 mmol, TFA salt

Substance	difficulty met [1]	isolated mass [2]
(2S)-(H-Ala-His-D-2Nal-D-Phe-NH)-6-aminohexanol	The purification had to be repeated in order to obtain a sufficiently pure product.	–
H-AH[d2Nal][dW]K-NH2	–	19.0 mg
